According to PubChem BioAssay AID2517 (National Center for Advancing Translational Sciences (NCATS), 2010):
The whole screen tested about 350,000 compounds, of which about 1,200 (0.34%) were called active. This list was built around the results that the source calls inconclusive (neither active nor inactive); the mix of calls is not that of the screen. Calls follow the shape of the dose curve; as a rule, active = well fitted inhibition curve with a large enough effect; inconclusive = small, poorly fitted or top-dose-only effect; inactive = no such curve, though single readings can be large or run the other way. Potencies of inconclusive entries are doubtful fits and often do not repeat.

Sequences of proteins named here, by UniProt entry; tags and fusion partners are left off.
UniProt P27695, whole entry, looked up: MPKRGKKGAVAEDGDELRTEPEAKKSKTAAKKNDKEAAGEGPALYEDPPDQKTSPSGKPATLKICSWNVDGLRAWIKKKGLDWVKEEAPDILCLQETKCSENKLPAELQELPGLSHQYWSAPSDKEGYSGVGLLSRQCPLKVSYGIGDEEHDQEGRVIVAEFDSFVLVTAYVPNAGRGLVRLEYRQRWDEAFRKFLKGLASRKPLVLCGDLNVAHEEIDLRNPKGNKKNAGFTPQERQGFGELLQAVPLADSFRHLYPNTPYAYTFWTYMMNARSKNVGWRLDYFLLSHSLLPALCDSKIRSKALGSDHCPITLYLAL

Molecular target: DNA repair nuclease/redox regulator APEX1 (Homo sapiens) (UniProt P27695)
Assay: qHTS Assay for Inhibitors of the Human Apurinic/apyrimidinic Endonuclease 1 (APE1); also: nearly all actives have a fitted effect of over 55% in size
Settings: recombinant APE1, TAMRA/BHQ-2 abasic DNA cleavage fluorescence; series mostly up to 65.8 µM
Summary of the method: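 Kinetic fluorescence read (525 ex/598 em nm, three reads 60 s apart) of AP-site incision; signal = third minus first read. Enzyme 0.75 nM, dual-labelled THF duplex 50 nM, compound preincubation 15 min RT.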
Potency is read from the fitted curve at half-maximal effect.

Row | SMILES | Potency
1 | CCCCNC(=O)OCCSCCS(=O)(=O)c1ccc(Cl)cc1 | inconclusive: 44.7 µM [inhibitor, single point]
2 | O=C(O)c1cc(-c2ccc(/C=C3\NC(=O)N(c4ccc(Cl)cc4)C3=O)o2)ccc1Cl | active: 25.1 µM
3 | O=C(Nc1ccc(F)cc1F)c1csc(-c2ccccc2)n1 | inconclusive: 39.8 µM [inhibitor, single point]
4 | CCOc1cc(/C=C(\C#N)C(=O)Nc2ccccn2)ccc1O | inactive
5 | COC(=O)CSc1nccc(-c2ccc(F)cc2)c1C#N | inconclusive: 0.0089 µM [inhibitor, full curve, poor fit]
6 | CCCC(=NCCc1c(C)[nH]c2ccccc12)C1=C(O)CC(c2ccccc2)CC1=O (centres undefined) | inactive
7 | Cc1cc(/C=C2\Sc3ccccc3N2C)cc(C)[n+]1CC1CCCO1 (centres undefined) | inconclusive: 28.2 µM [inhibitor, partial curve]
8 | O=C(O)/C=C/C(=O)Nc1ccc(Oc2ccc(NC(=O)/C=C/C(=O)O)cc2)cc1 | inconclusive: 17.8 µM [inhibitor, single point]
9 | Oc1c(C=Nc2ccc(Cl)cn2)sc2ccccc12 | inconclusive: 2 µM [inhibitor, full curve, poor fit]
10 | CC(=O)c1c(C)[nH]c(C(=O)Nc2c(C)n(C)n(-c3ccccc3)c2=O)c1C | inconclusive: 44.7 µM [inhibitor, single point]
11 | COc1ccc(C(=O)OCC[N+]2(C)CCCCC2)cc1 | inactive
12 | CCOc1ccc2cc(C#N)c(SCC(=O)NC(C)CC)nc2c1 (centres undefined) | inconclusive: 0.0045 µM [inhibitor, full curve, poor fit]
13 | COc1ccc(NS(=O)(=O)c2ccc3c(c2)n(C)c(=O)n3C)cc1 | inconclusive: 20 µM [inhibitor, single point]
14 | CN(C)c1ccc(CC(=O)c2nc3ccccc3s2)cc1 | inconclusive: 2.82 µM [inhibitor, partial curve]
15 | COCCn1c(C)cc(C(=O)CSc2n[nH]c(N)n2)c1C | active: 31.6 µM
16 | Cc1cc(C(=O)O)ccc1-c1ccc(/C=C2\NC(=O)N(Cc3ccc(F)cc3)C2=O)o1 | active: 12.6 µM
17 | CC[C@@]1(c2ccccc2)NC(=O)NC1=O | inactive
18 | CCCCn1cc([N+](=O)[O-])nc1C | inconclusive: 3.55 µM [inhibitor, single point]
19 | O=c1[nH]sc2ccccc12 | inactive
20 | CC(=O)N1CCc2cc(S(=O)(=O)CCC(=O)NCc3ccc4c(c3)OCO4)ccc21 | inactive
21 | O=S(=O)(Cc1ccccc1)Cc1cnc(Cl)s1 | inconclusive: 44.7 µM [inhibitor, single point]
22 | CCCn1nc(NC(=O)c2ccco2)c2cc3cc(C)ccc3nc21 | inconclusive: 3.98 µM [inhibitor, single point]

Row | SMILES | Potency
23 | Cc1[nH]n(-c2ccccc2)c(=O)c1/C=N/N1C(=O)c2ccc3c4c(ccc(c24)C1=O)CC3 | inconclusive: 25.1 µM [inhibitor, single point]
24 | CSCC[C@H](N)C(=O)N[C@@H](CCCN=C(N)N)C(=O)N[C@@H](Cc1ccccc1)C(=O)N[C@@H](Cc1ccccc1)C(=O)N[C@H](C(=O)O)C(C)C | inactive
25 | Cc1ccccc1Nc1nnc(SCc2cc([N+](=O)[O-])cc3c2OCOC3)s1 | inconclusive: 3.98 µM [inhibitor, single point]
26 | CC1CCCN(S(=O)(=O)c2ccc(N(C(=O)c3cnccn3)C(C(=O)NC3CCCCC3)c3cccs3)cc2)C1 (centres undefined) | inconclusive: 0.02 µM [inhibitor, full curve, poor fit]
27 | NCCCC[C@@H]1NC(=O)c2cc([N+](=O)[O-])cc(I)c2SC[C@@H](C(N)=O)NC(=O)[C@H](CCC(N)=O)NC1=O | inconclusive: 7.08 µM [inhibitor, partial curve]
28 | Cc1ccc2nc(-c3ccc(O)c(O)c3)cn2c1 | inconclusive: 16.8 µM [inhibitor, partial curve]
29 | CCCC(=O)Nc1c2c(nc3ccccc13)N(c1ccccc1)CC2 | inconclusive: 20 µM [inhibitor, single point]
30 | CCn1c(=N)n(CC(=O)c2cccc(OC)c2)c2ccccc21 | inconclusive: 44.7 µM [inhibitor, single point]
31 | S=c1[nH]nc(-c2ccccn2)n1/N=C/c1ccco1 | inactive
32 | CCOc1ccc(S(=O)(=O)NCc2ccc(Cl)cc2)c2cccnc12 | inconclusive: 2.82 µM [inhibitor, partial curve, poor fit]
33 | COc1ccc(/C=C2\SC(=O)N(CCCC(=O)Nc3ccc(C(=O)O)cc3)C2=O)cc1OC | inactive
34 | CC(C)C(C)(C#N)NC(=O)CN1C(=O)NC2(CCCc3ccccc32)C1=O (centres undefined) | inconclusive: 3.77 µM [inhibitor, single point]
35 | CCOC(=O)C1Sc2ccccc2NC1=O (centres undefined) | inconclusive: 6.31 µM [inhibitor, single point]
36 | NC(=S)NN=Cc1ccc(-c2ccc(S(=O)(=O)Nc3ncccn3)cc2)o1 | inactive
37 | Cc1cc2ccccc2n1CCNC(=O)c1ccc(S(=O)(=O)N2CCCCC2)cc1 | inconclusive: 20 µM [inhibitor, single point]
38 | N#CCSc1nnc(COc2cccc3ccccc23)n1-c1cccc(Cl)c1 | inactive
39 | COc1ccc(N2CCN(C(=O)Cc3nn(C)c(=O)c4ccccc34)CC2)cc1 | inconclusive: 35.5 µM [inhibitor, single point]
40 | O=C(CSc1nnc(Cc2csc(Nc3cccc(Cl)c3)n2)o1)N1CCc2ccccc21 | inactive
41 | COc1ccc(-c2nn(-c3ccccc3)cc2C(=O)NC(=S)NNC(=O)c2ccncc2)cc1 | inconclusive: 25.1 µM [inhibitor, single point]
42 | Cc1ccc(N2CC(C(=O)Nc3cccc(C(=O)NC4CC4)c3)CC2=O)cc1 (centres undefined) | inactive
43 | COC(=O)c1ccc([C@H]2C=C(C(=O)O)O[C@@H](OCc3ccc(CO)cc3)C2)cc1 | inconclusive: 0.02 µM [inhibitor, full curve, poor fit]
44 | CCOC(=O)c1cc(NC(=O)N2CCCc3ccccc32)c(C)nc1C | inconclusive: 0.0447 µM [inhibitor, full curve, poor fit]

Eight structures from above, arranged by SMILES length, rising.
Row | SMILES | Potency
30 | CCn1c(=N)n(CC(=O)c2cccc(OC)c2)c2ccccc21 | inconclusive: 44.7 µM [inhibitor, single point]
29 | CCCC(=O)Nc1c2c(nc3ccccc13)N(c1ccccc1)CC2 | inconclusive: 20 µM [inhibitor, single point]
38 | N#CCSc1nnc(COc2cccc3ccccc23)n1-c1cccc(Cl)c1 | inactive
39 | COc1ccc(N2CCN(C(=O)Cc3nn(C)c(=O)c4ccccc34)CC2)cc1 | inconclusive: 35.5 µM [inhibitor, single point]
33 | COc1ccc(/C=C2\SC(=O)N(CCCC(=O)Nc3ccc(C(=O)O)cc3)C2=O)cc1OC | inactive
23 | Cc1[nH]n(-c2ccccc2)c(=O)c1/C=N/N1C(=O)c2ccc3c4c(ccc(c24)C1=O)CC3 | inconclusive: 25.1 µM [inhibitor, single point]
26 | CC1CCCN(S(=O)(=O)c2ccc(N(C(=O)c3cnccn3)C(C(=O)NC3CCCCC3)c3cccs3)cc2)C1 (centres undefined) | inconclusive: 0.02 µM [inhibitor, full curve, poor fit]
27 | NCCCC[C@@H]1NC(=O)c2cc([N+](=O)[O-])cc(I)c2SC[C@@H](C(N)=O)NC(=O)[C@H](CCC(N)=O)NC1=O | inconclusive: 7.08 µM [inhibitor, partial curve]
